Results reported in patent publication US20200057047A1.
Results are given in words; binding and its absence hold for the method and conditions named. For some of these results: In cells and extracts the contact can be indirect. Some binding calls cover weakened binding; strength is not graded here.

The chains behind the UniProt entries cited, without tags or fusion partners. Where a name states a change or a piece, a line headed by the entry shows the natural chain unless it says otherwise. A line that says so, or that is headed by a name, gives the form on record, which may keep a tag or linker. Residues count along the entry.
UniProt P30561, residues 10-848: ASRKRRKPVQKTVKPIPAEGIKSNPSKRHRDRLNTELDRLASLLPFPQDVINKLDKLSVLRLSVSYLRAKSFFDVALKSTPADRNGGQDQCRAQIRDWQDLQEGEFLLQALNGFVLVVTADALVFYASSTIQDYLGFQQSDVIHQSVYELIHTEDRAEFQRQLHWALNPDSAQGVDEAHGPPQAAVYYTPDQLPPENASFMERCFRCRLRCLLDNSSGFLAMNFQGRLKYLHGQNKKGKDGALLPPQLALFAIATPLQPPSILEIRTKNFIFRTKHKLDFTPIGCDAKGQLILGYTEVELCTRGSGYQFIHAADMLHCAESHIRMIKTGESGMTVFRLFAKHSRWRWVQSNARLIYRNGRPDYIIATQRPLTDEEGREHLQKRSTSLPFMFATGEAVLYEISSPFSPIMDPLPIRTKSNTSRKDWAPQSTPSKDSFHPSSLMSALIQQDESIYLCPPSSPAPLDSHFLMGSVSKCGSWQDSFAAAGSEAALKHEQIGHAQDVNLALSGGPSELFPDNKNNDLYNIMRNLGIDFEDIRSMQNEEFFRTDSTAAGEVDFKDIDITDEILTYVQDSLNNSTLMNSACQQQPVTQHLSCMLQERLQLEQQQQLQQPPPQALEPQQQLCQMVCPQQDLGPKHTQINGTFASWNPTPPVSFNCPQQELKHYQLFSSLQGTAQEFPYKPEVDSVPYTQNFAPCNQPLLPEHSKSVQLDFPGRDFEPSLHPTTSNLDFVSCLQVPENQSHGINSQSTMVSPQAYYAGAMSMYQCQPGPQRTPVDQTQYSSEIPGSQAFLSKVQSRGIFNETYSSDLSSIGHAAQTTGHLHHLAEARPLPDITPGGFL
UniProt P46940: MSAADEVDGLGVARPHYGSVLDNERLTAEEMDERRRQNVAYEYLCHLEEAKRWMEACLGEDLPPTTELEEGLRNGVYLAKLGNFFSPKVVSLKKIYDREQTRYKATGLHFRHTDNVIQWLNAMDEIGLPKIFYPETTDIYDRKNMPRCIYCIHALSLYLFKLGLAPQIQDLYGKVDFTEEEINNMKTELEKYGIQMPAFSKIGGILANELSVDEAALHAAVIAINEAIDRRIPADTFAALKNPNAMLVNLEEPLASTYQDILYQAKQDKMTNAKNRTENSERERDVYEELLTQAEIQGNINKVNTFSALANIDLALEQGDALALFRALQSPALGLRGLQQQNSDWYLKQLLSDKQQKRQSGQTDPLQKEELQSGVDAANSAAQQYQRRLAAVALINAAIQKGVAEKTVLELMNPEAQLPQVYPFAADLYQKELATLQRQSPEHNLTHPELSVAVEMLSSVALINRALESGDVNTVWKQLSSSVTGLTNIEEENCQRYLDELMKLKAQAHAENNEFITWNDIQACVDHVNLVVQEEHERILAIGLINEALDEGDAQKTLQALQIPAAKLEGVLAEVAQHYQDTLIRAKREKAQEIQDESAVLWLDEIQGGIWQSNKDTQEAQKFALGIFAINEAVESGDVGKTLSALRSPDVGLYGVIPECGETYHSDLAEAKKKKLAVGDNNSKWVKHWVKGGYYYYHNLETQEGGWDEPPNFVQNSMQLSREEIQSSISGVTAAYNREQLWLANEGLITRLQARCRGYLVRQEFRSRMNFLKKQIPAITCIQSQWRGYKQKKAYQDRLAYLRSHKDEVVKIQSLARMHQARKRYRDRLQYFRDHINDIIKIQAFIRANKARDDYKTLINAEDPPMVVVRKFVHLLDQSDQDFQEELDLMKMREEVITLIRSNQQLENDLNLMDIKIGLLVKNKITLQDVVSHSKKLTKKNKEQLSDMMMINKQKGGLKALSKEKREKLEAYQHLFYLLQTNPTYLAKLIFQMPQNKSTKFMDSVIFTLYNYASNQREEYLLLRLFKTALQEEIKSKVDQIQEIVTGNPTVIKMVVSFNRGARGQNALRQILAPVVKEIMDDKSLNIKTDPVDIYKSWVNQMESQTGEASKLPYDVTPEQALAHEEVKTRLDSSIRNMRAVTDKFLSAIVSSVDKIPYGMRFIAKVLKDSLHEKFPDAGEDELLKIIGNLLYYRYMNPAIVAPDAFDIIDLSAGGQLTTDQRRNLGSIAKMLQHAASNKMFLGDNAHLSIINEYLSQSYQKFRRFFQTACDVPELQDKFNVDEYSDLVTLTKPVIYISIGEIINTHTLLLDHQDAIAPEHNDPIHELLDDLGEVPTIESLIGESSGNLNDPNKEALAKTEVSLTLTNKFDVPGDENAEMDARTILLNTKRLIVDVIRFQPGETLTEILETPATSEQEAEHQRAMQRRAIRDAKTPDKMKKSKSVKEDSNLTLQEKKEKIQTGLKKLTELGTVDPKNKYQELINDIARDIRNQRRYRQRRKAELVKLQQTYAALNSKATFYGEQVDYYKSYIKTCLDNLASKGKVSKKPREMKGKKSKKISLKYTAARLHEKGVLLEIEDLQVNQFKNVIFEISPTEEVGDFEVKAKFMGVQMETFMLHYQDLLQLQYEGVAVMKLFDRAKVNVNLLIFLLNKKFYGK
UniProt Q8IVH8: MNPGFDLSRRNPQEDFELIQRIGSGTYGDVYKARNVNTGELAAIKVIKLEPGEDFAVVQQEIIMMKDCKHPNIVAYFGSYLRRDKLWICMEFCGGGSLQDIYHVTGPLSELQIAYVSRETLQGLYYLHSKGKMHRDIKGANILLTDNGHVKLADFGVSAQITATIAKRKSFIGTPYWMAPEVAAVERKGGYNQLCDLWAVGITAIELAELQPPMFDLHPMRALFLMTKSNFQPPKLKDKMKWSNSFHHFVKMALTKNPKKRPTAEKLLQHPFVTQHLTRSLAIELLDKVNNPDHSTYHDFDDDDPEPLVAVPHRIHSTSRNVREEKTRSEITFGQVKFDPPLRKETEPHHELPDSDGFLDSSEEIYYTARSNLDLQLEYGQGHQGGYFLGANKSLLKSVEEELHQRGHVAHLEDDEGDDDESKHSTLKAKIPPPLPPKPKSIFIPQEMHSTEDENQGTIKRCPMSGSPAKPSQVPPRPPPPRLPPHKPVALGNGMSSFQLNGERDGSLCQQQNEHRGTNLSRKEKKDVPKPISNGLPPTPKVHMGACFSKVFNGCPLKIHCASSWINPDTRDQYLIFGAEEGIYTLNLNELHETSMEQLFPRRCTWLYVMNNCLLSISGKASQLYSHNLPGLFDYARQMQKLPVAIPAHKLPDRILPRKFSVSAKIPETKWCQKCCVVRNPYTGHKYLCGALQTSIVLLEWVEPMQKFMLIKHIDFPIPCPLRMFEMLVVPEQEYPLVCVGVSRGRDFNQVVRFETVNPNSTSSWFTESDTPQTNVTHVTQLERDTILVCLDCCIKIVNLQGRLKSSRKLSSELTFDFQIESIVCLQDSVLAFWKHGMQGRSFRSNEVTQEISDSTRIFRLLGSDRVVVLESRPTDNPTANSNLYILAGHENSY
Flag-tagged GLK (Q8IVH8, form named): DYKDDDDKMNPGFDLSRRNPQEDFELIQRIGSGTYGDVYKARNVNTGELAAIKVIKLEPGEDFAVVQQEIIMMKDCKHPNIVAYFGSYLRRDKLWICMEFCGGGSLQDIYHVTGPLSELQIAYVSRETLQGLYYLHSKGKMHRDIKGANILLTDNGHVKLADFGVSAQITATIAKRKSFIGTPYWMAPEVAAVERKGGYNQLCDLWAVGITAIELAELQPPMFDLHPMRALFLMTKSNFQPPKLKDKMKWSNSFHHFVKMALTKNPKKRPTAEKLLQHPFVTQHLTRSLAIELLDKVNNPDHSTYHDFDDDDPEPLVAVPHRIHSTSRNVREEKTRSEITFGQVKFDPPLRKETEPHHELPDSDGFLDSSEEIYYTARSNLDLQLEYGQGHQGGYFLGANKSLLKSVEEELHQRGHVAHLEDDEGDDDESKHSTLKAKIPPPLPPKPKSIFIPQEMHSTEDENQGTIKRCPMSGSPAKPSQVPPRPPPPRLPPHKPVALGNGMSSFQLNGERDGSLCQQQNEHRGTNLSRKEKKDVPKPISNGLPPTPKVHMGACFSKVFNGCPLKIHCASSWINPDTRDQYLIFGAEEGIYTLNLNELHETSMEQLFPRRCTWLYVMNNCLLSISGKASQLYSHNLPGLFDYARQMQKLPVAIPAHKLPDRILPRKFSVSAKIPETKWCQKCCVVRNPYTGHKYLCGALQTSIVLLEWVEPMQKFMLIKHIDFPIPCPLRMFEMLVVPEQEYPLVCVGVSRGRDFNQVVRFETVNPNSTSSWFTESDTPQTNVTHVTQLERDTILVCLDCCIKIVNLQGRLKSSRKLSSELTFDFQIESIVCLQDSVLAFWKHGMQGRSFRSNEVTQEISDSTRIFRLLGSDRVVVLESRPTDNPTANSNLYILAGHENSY
RORγt, endogenous, murine T cells (P51450, form named): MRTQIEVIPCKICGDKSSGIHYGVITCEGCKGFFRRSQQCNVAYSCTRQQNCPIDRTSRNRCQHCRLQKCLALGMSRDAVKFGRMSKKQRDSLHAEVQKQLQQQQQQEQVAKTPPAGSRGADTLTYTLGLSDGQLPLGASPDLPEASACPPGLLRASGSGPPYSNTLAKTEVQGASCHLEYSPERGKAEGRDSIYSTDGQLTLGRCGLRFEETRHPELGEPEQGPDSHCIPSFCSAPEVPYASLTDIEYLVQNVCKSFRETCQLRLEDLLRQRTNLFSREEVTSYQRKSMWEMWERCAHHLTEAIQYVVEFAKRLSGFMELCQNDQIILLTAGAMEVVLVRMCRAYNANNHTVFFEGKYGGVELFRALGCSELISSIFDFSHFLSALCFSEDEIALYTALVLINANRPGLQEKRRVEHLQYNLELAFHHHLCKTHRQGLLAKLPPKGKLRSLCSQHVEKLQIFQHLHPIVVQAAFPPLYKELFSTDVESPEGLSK
UniProt Q02111: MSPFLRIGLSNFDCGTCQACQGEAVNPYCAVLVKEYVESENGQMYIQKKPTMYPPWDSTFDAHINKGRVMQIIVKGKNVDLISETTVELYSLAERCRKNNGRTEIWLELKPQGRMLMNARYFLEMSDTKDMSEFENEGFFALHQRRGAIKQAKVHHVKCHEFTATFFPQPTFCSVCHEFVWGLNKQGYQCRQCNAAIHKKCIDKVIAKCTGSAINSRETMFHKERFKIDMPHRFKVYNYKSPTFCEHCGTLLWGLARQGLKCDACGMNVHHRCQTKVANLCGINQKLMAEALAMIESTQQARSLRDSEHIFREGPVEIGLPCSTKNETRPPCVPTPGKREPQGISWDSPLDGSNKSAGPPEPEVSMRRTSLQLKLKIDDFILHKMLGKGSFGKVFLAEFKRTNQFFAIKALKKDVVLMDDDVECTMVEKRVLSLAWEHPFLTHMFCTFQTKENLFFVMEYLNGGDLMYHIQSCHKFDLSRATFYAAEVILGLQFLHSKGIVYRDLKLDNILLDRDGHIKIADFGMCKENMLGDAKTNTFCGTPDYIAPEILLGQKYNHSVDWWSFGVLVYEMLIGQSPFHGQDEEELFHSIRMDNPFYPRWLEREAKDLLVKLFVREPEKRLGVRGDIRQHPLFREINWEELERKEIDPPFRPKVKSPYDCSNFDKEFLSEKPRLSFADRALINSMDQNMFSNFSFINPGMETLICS

Key:
[1] = target: Aryl hydrocarbon receptor (AhR), endogenous, murine T cells (mouse) (UniProt P30561); assay: co-IP of endogenous proteins, lysates of primary splenic T cells (FIG. 3F)
[2] = target: Aryl hydrocarbon receptor (AhR), endogenous, murine T cells (mouse) (UniProt P30561); assay: in situ PLA with probes for PKCθ and AhR, peripheral blood T cells (FIG. 3G)
[3] = target: Myc-tagged IQGAP1 (wild type) (Homo sapiens (Human)) (UniProt P46940); assay: legend of FIG. 18; co-IP, PLA, FRET, purified proteins
[4] = target: Myc-tagged IQGAP1 (wild type) (Homo sapiens (Human)) (UniProt P46940); assay: in situ PLA with probes for Flag and Myc, HEK293T transfectants (FIGS. 18F-G)
[5] = target: Myc-tagged IQGAP1 (wild type) (Homo sapiens (Human)) (UniProt P46940); assay: co-IP of purified Flag-GLK and Myc-IQGAP1 eluted with Flag and Myc peptides (FIG. 18I)
[6] = target: Myc-tagged IQGAP1 (wild type) (Homo sapiens (Human)) (UniProt P46940); assay: reciprocal co-IP (anti-Flag, anti-Myc), HEK293T cells transfected with Flag-GLK and Myc-IQGAP1 (FIGS. 18C-D)
[7] = target: GFP-GLK fusion protein (UniProt Q8IVH8); assay: co-IP, HEK293T cells co-transfected with Flag-GLK and GFP-GLK; blocked by the small molecule verteporfin (FIG. 16C)
[8] = target: Aryl hydrocarbon receptor (AhR), endogenous, murine T cells (mouse) (UniProt P30561); assay: co-IP and PLA, murine primary T cells stimulated with anti-CD3 (FIG. 6B)
[9] = target: RORγt, endogenous, murine T cells (mouse) (UniProt P51450); assay: in situ PLA, peripheral blood T cells (FIG. 4E)
[10] = target: RORγt, endogenous, murine T cells (mouse) (UniProt P51450); assay: in situ PLA, T cells of Lck-GLK;PKCθ-/- mice (FIG. 4E)
[11] = target: RORγt, endogenous, murine T cells (mouse) (UniProt P51450); assay: legend of FIG. 6; co-IP and PLA in murine primary T cells
[12] = target: RORγt, endogenous, murine T cells (mouse) (UniProt P51450); assay: co-IP of endogenous proteins, lysates of primary splenic T cells (FIG. 4B)
[13] = target: YFP-tagged IQGAP1 fusion protein (Homo sapiens (Human)) (UniProt P46940); assay: FRET, HEK293T transfectants (FIG. 18H)

With “PKCθ, endogenous, murine T cells (from UniProt Q02111 1-707) (enzyme)” the binding [1] was “binds” and the binding [2] was “binds”.
“Flag-tagged GLK (from UniProt Q8IVH8 1-894) (enzyme)” was tested, and the binding [3] was “binds”, the binding [4] was “binds” and the binding [5] was “binds”. The binding [6] was “binds” and the binding [7] was “binds”.
For “RORγt, endogenous, murine T cells (from UniProt P51450 1-495) (receptor)”, the binding [8] was “binds”.
For “Aryl hydrocarbon receptor (AhR), endogenous, murine T cells (from UniProt P30561 10-848)”, the binding [9] was “binds”, the binding [10] was “binds” and the binding [11] was “binds”. For the same substance, the binding [12] was “binds”.
“CFP-tagged GLK fusion protein (from UniProt Q8IVH8 1-894) (enzyme)” was tested, and the binding [13] was “binds”.
